Two substances from article PMC10491636 can be followed below.

Protein sequences, listed by entry. Tags and fused reporters are not part of them.
UniProt P40763: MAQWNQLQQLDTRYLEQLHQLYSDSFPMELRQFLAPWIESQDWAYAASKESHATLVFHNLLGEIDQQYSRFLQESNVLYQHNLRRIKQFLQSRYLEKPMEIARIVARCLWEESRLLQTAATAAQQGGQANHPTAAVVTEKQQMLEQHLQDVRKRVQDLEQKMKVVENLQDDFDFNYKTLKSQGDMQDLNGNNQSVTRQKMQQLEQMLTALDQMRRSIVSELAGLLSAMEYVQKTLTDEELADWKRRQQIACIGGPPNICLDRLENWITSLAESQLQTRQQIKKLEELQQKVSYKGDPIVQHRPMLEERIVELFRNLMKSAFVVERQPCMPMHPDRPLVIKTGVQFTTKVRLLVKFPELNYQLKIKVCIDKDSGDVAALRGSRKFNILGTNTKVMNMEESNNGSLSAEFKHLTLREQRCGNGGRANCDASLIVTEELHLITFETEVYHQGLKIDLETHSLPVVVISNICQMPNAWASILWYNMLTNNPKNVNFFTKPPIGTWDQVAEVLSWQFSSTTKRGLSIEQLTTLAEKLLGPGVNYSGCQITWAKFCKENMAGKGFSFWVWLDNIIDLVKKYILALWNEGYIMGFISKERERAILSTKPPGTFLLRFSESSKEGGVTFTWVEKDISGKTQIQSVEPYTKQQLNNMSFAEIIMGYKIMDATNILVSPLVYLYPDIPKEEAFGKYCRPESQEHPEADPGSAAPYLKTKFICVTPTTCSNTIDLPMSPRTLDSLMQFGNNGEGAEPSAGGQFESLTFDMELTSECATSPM
UniProt Q99570: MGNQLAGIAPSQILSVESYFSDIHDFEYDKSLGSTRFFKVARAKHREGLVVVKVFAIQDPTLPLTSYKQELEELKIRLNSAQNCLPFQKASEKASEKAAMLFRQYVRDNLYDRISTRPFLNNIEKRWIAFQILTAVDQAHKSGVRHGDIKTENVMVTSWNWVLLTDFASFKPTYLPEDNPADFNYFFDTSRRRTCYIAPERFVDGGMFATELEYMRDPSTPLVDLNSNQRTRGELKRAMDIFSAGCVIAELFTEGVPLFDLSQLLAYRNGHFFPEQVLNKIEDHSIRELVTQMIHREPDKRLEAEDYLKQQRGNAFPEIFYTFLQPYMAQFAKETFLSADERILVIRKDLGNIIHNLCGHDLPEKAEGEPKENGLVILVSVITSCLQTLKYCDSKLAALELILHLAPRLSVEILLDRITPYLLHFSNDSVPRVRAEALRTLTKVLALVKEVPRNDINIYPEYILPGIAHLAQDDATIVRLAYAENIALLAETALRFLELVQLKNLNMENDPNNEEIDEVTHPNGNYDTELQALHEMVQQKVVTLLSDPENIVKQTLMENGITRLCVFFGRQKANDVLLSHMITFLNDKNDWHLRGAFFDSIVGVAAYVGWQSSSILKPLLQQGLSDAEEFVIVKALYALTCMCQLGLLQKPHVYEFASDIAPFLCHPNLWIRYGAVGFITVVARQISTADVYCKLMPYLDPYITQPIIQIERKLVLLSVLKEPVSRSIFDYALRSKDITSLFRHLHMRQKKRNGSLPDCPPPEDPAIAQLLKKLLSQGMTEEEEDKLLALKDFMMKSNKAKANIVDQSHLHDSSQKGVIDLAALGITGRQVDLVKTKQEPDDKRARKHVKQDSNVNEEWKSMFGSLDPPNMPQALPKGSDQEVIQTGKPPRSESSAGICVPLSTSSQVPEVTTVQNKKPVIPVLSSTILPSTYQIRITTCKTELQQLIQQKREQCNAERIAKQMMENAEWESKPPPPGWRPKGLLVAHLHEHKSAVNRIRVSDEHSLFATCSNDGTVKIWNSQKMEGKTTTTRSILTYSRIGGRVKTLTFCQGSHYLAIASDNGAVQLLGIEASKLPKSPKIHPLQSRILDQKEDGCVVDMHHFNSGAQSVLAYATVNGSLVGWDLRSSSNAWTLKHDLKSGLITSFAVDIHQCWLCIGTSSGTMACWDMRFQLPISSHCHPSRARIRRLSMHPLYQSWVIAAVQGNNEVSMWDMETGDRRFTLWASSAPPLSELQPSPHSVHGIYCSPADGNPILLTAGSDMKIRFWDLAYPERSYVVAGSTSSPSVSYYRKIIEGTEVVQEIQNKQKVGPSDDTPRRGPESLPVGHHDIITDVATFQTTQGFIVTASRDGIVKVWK

These are yes or no findings as the source states them, for the method shown. For some assays here: Binding seen in cells or lysates may run through a third protein. Some results given as binding are weak or reduced against the parent protein; the word gives no strength.

Assay [1] deals with BD-STAT3 (STAT3 in pGBKT7, two-hybrid bait) (UniProt P40763). The assay can be described thus: two-hybrid; yeast strain AH109 co-transformed with bait (pGBKT7) and prey (pGADT7); growth on SD-Leu-Trp-Ade-His with X-α-gal.
Assay [2] addresses STAT3 BiFC fusion (in VN155 and VC155) (UniProt P40763). Briefly: split reporter; BiFC with VN155/VC155 fusions in HUVECs, 36 h after transfection, then 25 °C for 8 h, fixed, microscopy.

On to “AD-PIK3R4 (PIK3R4 fused to the Gal4 activation domain, two-hybrid prey) (from UniProt Q99570 1-1358)”, for which the binding entry in assay [1] is given as “binds”. “PIK3R4 BiFC fusion (in VN155 and VC155) (from UniProt Q99570 1-1358)”: the binding entry in assay [2] is listed as “binds”.
